Results: paper PMC3726584
No constants are given. Whether binding was seen depends on the method and setting. For some assays here: Binding seen in cells or lysates may run through a third protein. Some entries that bind do so weakly or less than the wild type.

Chains of the proteins cited; added tags and fusions are not shown.
UniProt P05556: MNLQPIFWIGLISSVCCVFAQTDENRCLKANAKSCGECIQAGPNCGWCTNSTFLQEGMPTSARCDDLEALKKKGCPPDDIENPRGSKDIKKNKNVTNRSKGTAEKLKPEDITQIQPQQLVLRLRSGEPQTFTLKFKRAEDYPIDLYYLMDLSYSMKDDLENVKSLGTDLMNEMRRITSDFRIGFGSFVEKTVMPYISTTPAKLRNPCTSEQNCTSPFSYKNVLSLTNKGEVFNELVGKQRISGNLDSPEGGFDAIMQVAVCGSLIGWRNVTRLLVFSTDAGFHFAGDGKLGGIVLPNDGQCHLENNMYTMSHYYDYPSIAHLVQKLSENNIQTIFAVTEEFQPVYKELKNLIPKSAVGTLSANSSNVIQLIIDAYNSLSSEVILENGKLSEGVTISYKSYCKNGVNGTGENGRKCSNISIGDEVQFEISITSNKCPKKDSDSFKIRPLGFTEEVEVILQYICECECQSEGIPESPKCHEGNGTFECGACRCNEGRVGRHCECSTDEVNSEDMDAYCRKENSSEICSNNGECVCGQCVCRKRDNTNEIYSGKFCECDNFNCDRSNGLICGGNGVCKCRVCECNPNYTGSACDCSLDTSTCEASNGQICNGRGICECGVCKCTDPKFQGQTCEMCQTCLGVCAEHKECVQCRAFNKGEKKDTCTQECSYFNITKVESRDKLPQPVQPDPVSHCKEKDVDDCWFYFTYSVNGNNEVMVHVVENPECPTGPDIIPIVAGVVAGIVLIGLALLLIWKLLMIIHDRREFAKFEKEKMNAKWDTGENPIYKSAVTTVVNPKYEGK

Experiments:
[1] = target: Integrin beta-1 (human (endogenous in primary RPE cells)) (UniProt P05556); test: co-IP; 375 µg RPE cell lysate (1% Triton X-100), no cross-linking; 2 µg monoclonal anti-CD147, anti-integrin-α3 or anti-integrin-β1 on ProteinG Sepharose, 2 h in the cold; eluates immunoblotted with anti-Gal-3
[2] = target: Integrin beta-1 (human (endogenous in primary RPE cells)) (UniProt P05556); test: flow cytometry on cells; biotinylated Gal-3 (50 µg/mL in the methods, 40 ug/mL in the legend) on RPE cells, 1 h at 4°C, avidin-FITC; cells first incubated with anti-CD147, anti-integrin-β1 or anti-integrin-α3 antibody to block these sites; cell surface binding inhibited by 100 mM β-lactose, not by sucrose; only the binder purified

Galectin-3 (endogenous) (from UniProt P17931 1-250)
binding [1]: binds

Recombinant human galectin-3, biotinylated (from UniProt P17931 1-250)
binding [2]: binds
